According to publication doi:10.1101/2022.05.16.492168:
Results are given in words; binding and its absence hold for the method and conditions named. Binding seen in cells or lysates may run through a third protein. A yes stands for co-enrichment or nearness to the bait. Other partners may have been found. For some assays here: Tags and fused reporters may be left off the sequences shown. Blank lines part the entries; values can stand above or below the binder they belong to.

Protein sequences, listed by entry. Tags and fused reporters are not part of them. Lines headed by an entry give the natural chain unless they say otherwise; changes in a name come on top.
UniProt Q8L8T7: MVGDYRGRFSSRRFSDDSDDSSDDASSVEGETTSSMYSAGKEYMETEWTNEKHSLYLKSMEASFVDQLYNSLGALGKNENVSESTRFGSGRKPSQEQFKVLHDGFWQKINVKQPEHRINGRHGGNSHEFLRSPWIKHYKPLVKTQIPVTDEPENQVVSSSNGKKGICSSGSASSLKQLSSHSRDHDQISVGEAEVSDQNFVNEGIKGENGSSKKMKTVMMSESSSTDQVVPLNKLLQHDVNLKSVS

Legend:
Experiment in all cases: affinity purification with mass spectrometry
[1] = molecular target: YFP-COR27 (COLD REGULATED GENE 27) (Arabidopsis thaliana) (UniProt Q8L8T7)
[2] = molecular target: T1, GFP-COR28 (COLD REGULATED GENE 28) (Arabidopsis thaliana) (UniProt Q8L983)
T1 sequence: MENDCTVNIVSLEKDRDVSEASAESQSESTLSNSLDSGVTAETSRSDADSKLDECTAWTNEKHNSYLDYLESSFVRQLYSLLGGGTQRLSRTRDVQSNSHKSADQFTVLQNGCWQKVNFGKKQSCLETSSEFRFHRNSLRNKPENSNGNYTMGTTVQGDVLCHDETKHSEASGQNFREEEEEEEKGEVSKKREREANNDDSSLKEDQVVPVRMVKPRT

[3] = molecular target: T2, LNK2-HFC (NIGHT LIGHT INDUCIBLE AND CLOCK REGULATED 2 with 3x-FLAG-6x-His C-terminal tag) (Arabidopsis thaliana) (UniProt F4JCX9)
T2 sequence: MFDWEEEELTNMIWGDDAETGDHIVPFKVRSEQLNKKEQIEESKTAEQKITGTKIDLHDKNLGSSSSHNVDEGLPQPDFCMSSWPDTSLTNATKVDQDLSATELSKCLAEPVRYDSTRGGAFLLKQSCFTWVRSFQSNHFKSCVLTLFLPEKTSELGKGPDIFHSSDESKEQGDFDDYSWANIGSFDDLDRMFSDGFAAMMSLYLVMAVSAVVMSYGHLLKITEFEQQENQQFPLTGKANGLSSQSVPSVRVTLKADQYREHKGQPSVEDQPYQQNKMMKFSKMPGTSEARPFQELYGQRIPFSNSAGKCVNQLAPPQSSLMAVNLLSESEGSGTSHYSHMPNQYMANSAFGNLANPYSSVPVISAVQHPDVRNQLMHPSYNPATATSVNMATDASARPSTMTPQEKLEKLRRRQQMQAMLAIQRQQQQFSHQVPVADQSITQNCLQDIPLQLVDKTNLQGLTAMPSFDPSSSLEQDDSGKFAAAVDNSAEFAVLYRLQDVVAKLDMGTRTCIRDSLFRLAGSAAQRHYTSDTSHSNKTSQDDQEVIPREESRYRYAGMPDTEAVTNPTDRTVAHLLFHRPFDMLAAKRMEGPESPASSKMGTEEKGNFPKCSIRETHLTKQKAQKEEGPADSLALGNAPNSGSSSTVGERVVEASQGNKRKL

[4] = molecular target: T3, LNK1-HFC (NIGHT LIGHT INDUCIBLE AND CLOCK REGULATED 1 with 3x-FLAG-6x-His C-terminal tag) (Arabidopsis thaliana) (UniProt A8MQN2)
T3 sequence: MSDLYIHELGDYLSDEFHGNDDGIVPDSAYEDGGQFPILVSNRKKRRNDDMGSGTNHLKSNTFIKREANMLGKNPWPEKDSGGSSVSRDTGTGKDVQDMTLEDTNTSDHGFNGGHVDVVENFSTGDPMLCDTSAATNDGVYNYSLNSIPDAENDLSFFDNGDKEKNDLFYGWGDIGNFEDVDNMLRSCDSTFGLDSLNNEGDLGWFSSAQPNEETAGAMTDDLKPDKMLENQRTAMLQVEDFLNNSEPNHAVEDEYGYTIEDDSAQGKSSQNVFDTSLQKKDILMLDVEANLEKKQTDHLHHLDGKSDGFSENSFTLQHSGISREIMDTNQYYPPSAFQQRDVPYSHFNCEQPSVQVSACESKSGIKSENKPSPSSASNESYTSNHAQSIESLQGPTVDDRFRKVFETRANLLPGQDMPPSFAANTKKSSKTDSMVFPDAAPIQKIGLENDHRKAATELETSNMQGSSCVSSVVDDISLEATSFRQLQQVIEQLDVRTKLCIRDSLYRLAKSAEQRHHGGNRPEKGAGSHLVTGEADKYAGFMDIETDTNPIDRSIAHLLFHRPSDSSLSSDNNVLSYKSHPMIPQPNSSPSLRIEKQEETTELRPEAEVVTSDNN

- binding [1]: binds
B1: NIGHT LIGHT INDUCIBLE AND CLOCK REGULATED 2 (LNK2), endogenous (protein, UniProt F4JCX9 1-663)
chain: T2 sequence

- binding [1]: binds
- binding [2]: binds
B2: PHYD (protein, UniProt P42497 1-1164)
chain: MVSGGGSKTSGGEAASSGHRRSRHTSAAEQAQSSANKALRSQNQQPQNHGGGTESTNKAIQQYTVDARLHAVFEQSGESGKSFDYSQSLKTAPYDSSVPEQQITAYLSRIQRGGYTQPFGCLIAVEESTFTIIGYSENAREMLGLMSQSVPSIEDKSEVLTIGTDLRSLFKSSSYLLLERAFVAREITLLNPIWIHSNNTGKPFYAILHRVDVGILIDLEPARTEDPALSIAGAVQSQKLAVRAISHLQSLPSGDIKLLCDTVVESVRDLTGYDRVMVYKFHEDEHGEVVAESKRNDLEPYIGLHYPATDIPQASRFLFKQNRVRMIVDCYASPVRVVQDDRLTQFICLVGSTLRAPHGCHAQYMTNMGSIASLAMAVIINGNEEDGNGVNTGGRNSMRLWGLVVCHHTSARCIPFPLRYACEFLMQAFGLQLNMELQLALQVSEKRVLRMQTLLCDMLLRDSPAGIVTQRPSIMDLVKCNGAAFLYQGKYYPLGVTPTDSQINDIVEWLVANHSDSTGLSTDSLGDAGYPRAAALGDAVCGMAVACITKRDFLFWFRSHTEKEIKWGGAKHHPEDKDDGQRMNPRSSFQTFLEVVKSRCQPWETAEMDAIHSLQLILRDSFKESEAMDSKAAAAGAVQPHGDDMVQQGMQEIGAVAREMVRLIETATVPIFAVDIDGCINGWNAKIAELTGLSVEDAMGKSLVRELIYKEYKETVDRLLSCALKGDEGKNVEVKLKTFGSELQGKAMFVVVNACSSKDYLNNIVGVCFVGQDVTGHKIVMDKFINIQGDYKAIIHSPNPLIPPIFAADENTCCLEWNTAMEKLTGWPRSEVIGKLLVREVFGSYCRLKGPDALTKFMIVLHNAIGGQDTDKFPFPFFDRKGEFIQALLTLNKRVSIDGKIIGAFCFLQIPSPELQQALEVQRRQESEYFSRRKELAYIFQVIKNPLSGLRFTNSLLEDMDLNEDQKQLLETSVSCEKQISKIVGDMDVKSIDDGSFLLERTEFFIGNVTNAVVSQVMLVVRERNLQLIRNIPTEVKSMAVYGDQIRLQQVLAEFLLSIVRYAPMEGSVELHLCPTLNQMADGFSAVRLEFRMACAGEGVPPEKVQDMFHSSRWTSPEGLGLSVCRKILKLMNGGVQYIREFERSYFLIVIELPVPLMMMMPSS

- binding [1]: binds
- binding [3]: binds
- binding [2]: binds
- binding [4]: binds
B3: REVEILLE 5 (RVE5) (protein, UniProt C0SVG5 1-303)
chain: MVSVNPRPKGFPVFDSSNMSLPSSDGFGSIPATGRTSTVSFSEDPTTKIRKPYTIKKSRENWTDQEHDKFLEALHLFDRDWKKIEAFVGSKTVVQIRSHAQKYFLKVQKSGANEHLPPPRPKRKASHPYPIKAPKNVAYTSLPSSSTLPLLEPGYLYSSDSKSLMGNQAVCASTSSSWNHESTNLPKPVIEVEEPGVSATAPLPNNRCRQEDTERVRAVTKPNNEESCEKPHRVMPNFAEVYSFIGSVFDPNTSGHLQRLKQMDPINMETVLLLMQNLSVNLTSPEFAEQRRLISSYSAKALK

- binding [1]: binds
- binding [3]: binds
- binding [2]: binds
- binding [4]: binds
B4: REVEILLE 6 (RVE6) (protein, UniProt Q8H0W3 1-331)
chain: MVSRNSDGYFLDPTGMTVPGLGPSFTAAVSSSSSPTTSSTAVAVADVTAMVSSSEEDLSKKIRKPYTITKSRESWTEPEHDKFLEALQLFDRDWKKIEAFIGSKTVIQIRSHAQKYFLKVQKSGTGEHLPPPRPKRKAAHPYPQKAHKNVQLQVPGSFKSTSEPNDPSFMFRPESSSMLMTSPTTAAAAPWTNNAQTISFTPLPKAGAGANNNCSSSSENTPRPRSNRDARDHGNVGHSLRVLPDFAQVYGFIGSVFDPYASNHLQKLKKMDPIDVETVLLLMRNLSINLSSPDFEDHRRLLSSYDIGSETATDHGGVNKTLNKDPPEIST
